# Assay results

The results are deposited in PubChem (AID1159506; NCATS, 2015).

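Genome-wide siRNA knockdown in TC32 Ewing sarcoma cells, comparing luciferase light from an NR0B1-promoter reporter with a CMV-promoter reporter 48 hours after transfection. Each siRNA was applied at 20 nM. A z-score of the log NR0B1-over-CMV signal, less the median of siRNAs with the same seed; more negative means a stronger specific loss of the NR0B1 reporter.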

This is part of the screen; most of the strongest results are not listed here. Sequences are the guide (antisense) strand, without overhang.

Sequence	gene	seed-corrected z-score
UUACUAUUCUUUGAAUCUC	RASSF6	0.2703
UCUUCCAUCAUCAUAUCUG	SELK	-0.7137
UAGGAUCAAAACUGGAUGG	RNF180	0.6474
UCAGUAUCUAAACAUCGUC	DEFB125	0.2167
UGGAUGAUCAGCAAUUCGG	SNX7	0.06567
UUUGCUGUUGGUAUGGAGG	SNX11	0.1066
UCUGCACCGGGUUCAAAGC	WNT5B	0.8086
AUCCCAGAAAGAUUCGGCC	FAM156B	0.2447
UACAAAUAUGAUUCGAUCC	CHCHD4	1.123
UCUGAGGCAACGAAUCUCU	FAM90A3P	0.2195
UGAUGUACUGGUCCAACAG	MRPL10	-0.2454
UUAGGUGCUGGAUAUACAG	ZCCHC2	-0.5338
UUGAUGAAAACGGAAGUGU	PROB1	-0.1472
AAAGGUAAUCCAUCUGUUC	IL2	-0.2232
ACUGUUCUGAGAUCCGCGC	C11orf45	-1.721
UCACGGAUCAGGUGGAUCU	ALS2CL	0.6157
UAUCCUCUGAUGUCAACUG	AKR1C4	-0.3298
UUCGUGAAACUAAAGGUGC	ESYT2	-0.983
UGUAUUGUAAUUCUAGCGG	MSH3	-0.1423
AUAUGGAAACUGGUGACUC	HERPUD2	0.186
UUGCUGAUAGCUUCUAGGC	SPARCL1	0.5477
UAUGGUCACCCGAAUAGCC	IL17RE	0.02672
AUAUCUUCAUGACUUAGCC	CYP4V2	0.1243
UAUUACACAACCUCUGUCA	LOC255187	0.3667
UGAUAAACUAUGCUGGACC	RRAGB	0.3307
UUCUCAUCCAAUGCUCCCG	ARL8A	-0.001734
UAUUUUUCUUGGUACGCUG	RPS6	0.2668
AAUGAUAGACUCUAUAACC	CDS1	-0.5184
UUUAUUAGCAGUACCAACC	VCL	0.3939
UUCCGGUCGAUGAAGAUGA	AGPAT1	-0.9998
UAUCAUUUAAGGUGUAUAC	HPR	-0.7003
UGCCUCUCCACUUUGACAC	CTSD	-0.07418
UUUGUUGAACAGGAAUACC	ZNF235	0.008716
AAACCUUUAGUAUCUGCUU	PLAGL1	-0.3228
UACGGUCACAGUAUUGUGC	USP24	0.04341
UUUGUCUACAGGUAACAUG	APBB2	0.8658
AAUUUGUUGAGGUCCCUUG	RGS18	-0.03452
UUUAUGAAAUCGAAGAUUU	ZNF440	0.3475
AUGGUGUUAAGCAGUGUCA	BCKDHA	0.08983
UGAAUGUUGGGUGAUGAGC	KRTAP1-5	-0.582
UGAUGUCACUGUACGGUUC	RAD21	0.3956
AAUGUUUAGAUUGGUUUUC	ZNF33A	-0.3501
UAUUUGUCAUCAAACCUUU	SPCS2	-0.4674
UAUCUGUUCCAACUUUAUC	EEF1B2	-0.3367
UGUUCAAUAAUGUCAACUU	EAF1	-0.3293
UUAUUUCUCGACAUGAUUG	TGIF2LX	-0.05501
AAUCGUCCAACAUUCUAGC	KIAA1841	-0.7195
UAAACGUGGAUGUAGAUGG	CLPTM1	-0.3882
AAGAGAAAACCCUCUUUCG	METTL15P3	-0.6224
UCAAUGUAGUUGAAGCUCC	EDDM3B	1.491
UCAUUUGCCGUGAAUACAG	ACTR5	-0.05317
AGAGUCAUAAGCACAUUUC	OR56A3	1.03

For reference, 5 entries once more:

{"sequence": "AAACCUUUAGUAUCUGCUU", "gene": "PLAGL1", "seed-corrected z-score": "-0.3228"}
{"sequence": "UUUAUUAGCAGUACCAACC", "gene": "VCL", "seed-corrected z-score": "0.3939"}
{"sequence": "UGGAUGAUCAGCAAUUCGG", "gene": "SNX7", "seed-corrected z-score": "0.06567"}
{"sequence": "UUUGCUGUUGGUAUGGAGG", "gene": "SNX11", "seed-corrected z-score": "0.1066"}
{"sequence": "UUCUCAUCCAAUGCUCCCG", "gene": "ARL8A", "seed-corrected z-score": "-0.001734"}